Assay results taken from PubChem BioAssay AID651640 (Broad Institute, 2012).
Values joined by “and” are separate entries in the source; they are usually repeats but may differ in a detail not shown here. Equal entries are not always repeated. The whole screen tested about 350,000 compounds, of which about 6,000 (1.7%) were called active. The inconclusive results got no clear call from the source; some entries with a clear call stand among them for comparison. Rule as the data show it: active = CPE inhibition above about 20% (passing the limit was not always enough); inconclusive = no clear call, values can overlap the other calls; tested in BHK-21 cells. The source holds several records for some structures; these can differ, active in one and inactive in another.

Assay: protection of cells from dengue 2 killing – plate reader, single concentration, primary screen (AID 651640);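 also: 0% = median of neutral control wells and 100% = median of positive control wells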
Conditions: DENV2-infected cells, cytopathic effect rescue, at 9.99 µM, active compounds read high

Row | SMILES | CPE inhibition
1 | C[C@H](CO)N1C[C@H](C)[C@@H](CN(C)C(=O)Cc2ccccn2)Oc2ncc(-c3ccccc3)cc2C1=O | inactive: -3.66%
2 | Cc1c(C(=O)OCC(=O)N2CC(C)CC(C)C2)oc2ccccc12 (centres undefined) | inactive: -3.51%
3 | Cc1ccc(SCc2ccc(C(=O)Nc3ccccc3C(=O)NC(C)C)cc2)cc1 | inconclusive: 29.3%
4 | CCOC(=O)c1c(NC(=O)COC(=O)Cc2ccccc2[N+](=O)[O-])sc(C(=O)N(C)C)c1C | inconclusive: 36.2%
5 | O=c1[nH]c(=S)[nH]c2c1[C@H](CCc1cccc(Cl)c1)O[C@H](C1CCCC1)C2 | inconclusive: 51.6%
6 | O=S(=O)(c1ccccc1)N1C[C@@H]2N[C@H](C1)C2c1ccc(-c2ccccc2)cc1 (some centres undefined) | inactive: -2.1% and inactive: -1.71%
7 | Cc1ccc(S(=O)(=O)N2CCOCC2)cc1C(=O)NC1CCN(Cc2ccccc2)CC1 | inconclusive: 46.8%
8 | CC(C)NC(=O)N(C)C[C@@H]1OCCCC[C@@H](C)Oc2ccc(NC(=O)c3ccccc3)cc2C(=O)N([C@H](C)CO)C[C@H]1C | inactive: 1.94%
9 | CCS(=O)(=O)Nc1ccc2c(c1)C(=O)N(C)[C@H]1CC[C@@H](CC(=O)NC)O[C@@H]1CO2 | inactive: -5.97%
10 | CN(Cc1ccccc1)C(=O)c1[nH]cnc1C(=O)NCCCCCNC(=O)OC(C)(C)C | inconclusive: 31.2%
11 | O=C(NC1CCC1)[C@@H]1[C@@H](CO)[C@@H]2Cn3c(ccc(/C=C/c4ccccc4)c3=O)[C@@H]2N1Cc1ccncc1 | inconclusive: 51%
12 | C[C@H](CO)N1C[C@H](C)[C@H](CN(C)C)Oc2ncc(C#CC3CC3)cc2C1=O | active: 102%
13 | O=C(C1CCOCC1)N1C[C@@H]2[C@H](c3ccccc31)[C@H](CO)N2C(=O)c1ccccc1 | active: 89%
14 | CC[C@@]1(C(=O)OC)N[C@H](CN(C)S(=O)(=O)c2ccc(-c3ccccc3)cc2)[C@@H]2C(=O)N(C)C(=O)[C@@H]21 | inconclusive: 20.3%
15 | CC1CCC2(CC1)NC(=O)N(CC(=O)NCc1ccco1)C2=O (centres undefined) | inconclusive: 23.1%
16 | Cc1cccc(N(Cc2ccccc2)C(=O)c2ccc(F)c(S(=O)(=O)N3CCOCC3)c2)c1 | inconclusive: 28.7%
17 | COc1ccc(NC(=O)Nc2ccc3c(c2)C(=O)N([C@@H](C)CO)C[C@@H](C)[C@H](CN(C)S(=O)(=O)c2ccc(OC)cc2)O3)cc1 | active: 27.8%
18 | Cc1noc(C)c1NC(=O)N(C)C[C@@H]1Oc2ccc(NC(=O)CCC(F)(F)F)cc2C(=O)N([C@H](C)CO)C[C@@H]1C | inconclusive: 26.7%
19 | COc1ccc(N2CCN(C(=O)CNC(=O)Cc3ccccc3)CC2)cc1 | inconclusive: 28.4%
20 | COc1ccccc1C#Cc1ccc2c(c1)[C@H]1[C@H](CCN1C(=O)CN1CCOCC1)[C@H](CO)N2 | inactive: -3.08%
21 | COC(=O)[C@@]1(Cc2ccc(F)cc2)[C@H]2c3cc(C(=O)N(C)C)n(Cc4ccc(OC(F)(F)F)cc4)c3C[C@H]2CN1C(=O)c1ccccc1 | active: 20.1%
22 | N#Cc1ccc(-c2ccc([C@@H]3[C@@H]4CN(Cc5cocn5)C[C@H]3N4)cc2)cc1 | active: 98.7%
23 | Cc1ccc(S(=O)(=O)N(C)C[C@@H]2OCCCC[C@H](C)Oc3ccc(NC(=O)Nc4cccc5ccccc45)cc3C(=O)N([C@H](C)CO)C[C@@H]2C)cc1 | inconclusive: 41.6%

Row | SMILES | CPE inhibition
24 | CNC(=S)NC(CC(=O)OC)c1ccc2c(c1)OCO2 (centres undefined) | inconclusive: 24.6%
25 | COc1cc(NC(=O)CSc2c3c(nc4ccccc24)CCC3)cc(OC)c1OC | active: 70.4%
26 | CC12C=CC(C)(C3C(=O)NC(=O)C31)C1C3C(=O)NC(=O)C3C12 (centres undefined) | inconclusive: 55.9%
27 | C/C=C/c1ccc([C@H]2[C@@H](CO)N(C(C)=O)[C@H]2CNC(=O)c2ccccc2)cc1 | active: 23.9%
28 | CC(NC(=O)CSc1nc(C2CC2)n(-c2ccccc2)n1)c1ccco1 (centres undefined) | inconclusive: 43.1%
29 | COc1cccc(NC(=O)N(C)C[C@@H]2OCc3cn(nn3)CCCC(=O)N([C@H](C)CO)C[C@H]2C)c1 | active: 37.7%
30 | CCCOc1ccc(NC(=O)c2c(-c3ccccc3)noc2C)cc1 | inactive: 2.88%
31 | C[C@H]1CN([C@@H](C)CO)C(=O)CCCn2cc(nn2)CO[C@H]1CN(C)Cc1ccccc1 | inactive: 2.87%
32 | CN(C)C(=O)C[C@@H]1C=C[C@@H](NS(=O)(=O)c2ccccc2)[C@@H](CO)O1 | inconclusive: 35.8%
33 | O=C(NCC1CC1)[C@@H]1[C@@H](CO)[C@@H]2Cn3c(ccc(-c4cccnc4)c3=O)[C@@H]2N1Cc1cocn1 | inconclusive: 60.9%
34 | Cc1oc(-c2cccc(Cl)c2)nc1CN(C)C1CCOC1 (centres undefined) | inconclusive: 31%
35 | CN1CCN(C(=O)C2=C[C@H](c3ccc(C(F)(F)F)cc3)C[C@H](OCc3ccc(CO)cc3)O2)CC1 | active: 46.7%
36 | COc1ccc2c3c([nH]c2c1)[C@H](CO)N(C(=O)Nc1ccc(F)cc1)CC31CCN(S(=O)(=O)c2ccc(C)cc2)CC1 | inconclusive: 23.4%
37 | O=C(Oc1c(-c2ccccc2)c(=O)n2c3c(cccc13)CC2)c1cccc([N+](=O)[O-])c1 | inconclusive: 46.6%
38 | CCOc1ccc(CCN2C(=S)N([C@@H](CC(C)C)CN3CCCC3CN3C(=S)NC[C@@H]3Cc3ccc(O)cc3)C[C@@H]2Cc2ccc(O)cc2)cc1 (some centres undefined) | active: 31.3%
39 | CCNC(=O)C[C@H]1CC[C@H]2[C@H](COc3ccc(NC(=O)c4ccc(C(F)(F)F)cc4)cc3C(=O)N2C)O1 | inactive: -6.52%
40 | Cc1ccc(C)c(N(C(=O)CNC(=O)c2ccco2)C(C(=O)NC2CCCC2)c2ccncc2)c1 (centres undefined) | inconclusive: 22%
41 | CC1CCN(C(=O)CN2C(=O)NC3(CCC(C)CC3)C2=O)CC1 (centres undefined) | inconclusive: 21.6%
42 | O=C(C1CCOCC1)N1C[C@@H]2N[C@H](C1)C2c1ccc(/C=C/c2ccccc2)cc1 (some centres undefined) | inconclusive: 26.6% and inconclusive: 28.1%
43 | O=C(C[C@H]1C=C[C@@H](NS(=O)(=O)c2ccccc2)[C@@H](CO)O1)NCc1ccccc1F | inactive: -7.96%
44 | CC(=O)CC(=O)Nc1ccc(Cl)cn1 | inconclusive: 32.4%
45 | Cc1ccc(S(=O)(=O)N2C[C@@H](O)COC[C@H]3O[C@@H](CC(=O)NCc4ccc(Cl)c(Cl)c4)CC[C@@H]32)cc1 | inconclusive: 20.3%
46 | O=C(CN1CCN(C(=O)C2CCC2)CC1)Nc1ccc(F)cc1 | active: 32.1%

Row | SMILES | CPE inhibition
47 | COC(OC)c1ccc(C#N)c(SCc2ccc(C)cc2)n1 | inactive: 0.252%
48 | Cc1ccc(-c2nc(CS(=O)CC(=O)NCc3ccccc3)c(C)o2)cc1 (centres undefined) | inconclusive: 44.7%
49 | OCCC1CN(Cc2cnc(-c3ccc(Cl)cc3)nc2)CCN1C1CCCC1 (centres undefined) | inconclusive: 43.2%
50 | [N-]=[N+]=Nc1ccccc1C[C@@]1(C(=O)NCCN2CCOCC2)N=C(c2ccc(OCCCO)cc2)O[C@@H]1c1ccccc1N=[N+]=[N-] | inactive: 5.83%
51 | CC1(C(=O)NS(=O)(=O)c2ccc(Cl)s2)CCN1C(=O)c1ccccc1CCc1ccccc1 (centres undefined) | inconclusive: 20.7%
52 | Cc1noc(C)c1NC(=O)N(C)C[C@@H]1Oc2ccc(NC(=O)C3CCCCC3)cc2CC(=O)N([C@@H](C)CO)C[C@@H]1C | active: 30.9%
53 | COc1ccc(CN2C[C@H]3CON(C)[C@H]3C[C@H]2c2ccc(-c3cccc(F)c3)cc2)cc1 | active: 27.4%
54 | COc1cccc(CNS(=O)(=O)c2ccc3c(c2)CC(C)N3C(=O)C2CC2)c1 (centres undefined) | inconclusive: 24%
55 | Cc1ccc(Cn2cc(CN3CC(N(C)C)CS3(=O)=O)nn2)cc1 (centres undefined) | active: 23%
56 | CC(C)NC(=O)N[C@H]1C=C[C@H](CC(=O)N2CCCCC2)O[C@H]1CO | inactive: 5.16%
57 | CN(C(=O)c1ccc(NC(=O)Cc2ccc(NC(=O)C3CCCN(S(=O)(=O)c4cccc([N+](=O)[O-])c4)C3)cc2)cc1)C1CCCC1 (centres undefined) | inconclusive: 42.6%
58 | COCC(=O)NC1CC2CCC(C1)N2C(=S)Nc1ccccc1C(=O)OC (centres undefined) | inconclusive: 28.8%
59 | CC(C)(C)Nc1nc(SCC(=O)Nc2ccccc2Cl)nc(N2CCOCC2)n1 | inconclusive: 29.2%
60 | O=S(=O)(c1ccc(F)cc1)N1CCCCN2[C@H](CO)[C@@H](c3ccc(C#CC4CC4)cc3)[C@@H]2C1 | inactive: 17.6%
61 | C[C@H]1CCCCO[C@H](CN(C)C(=O)Nc2cccc3ccccc23)[C@@H](C)CN([C@@H](C)CO)C(=O)c2cc(NC(=O)Nc3ccc4c(c3)OCO4)ccc2O1 | inactive: 5.09%
62 | O=C(Nc1ncccc1O)c1ccc(Cl)c(S(=O)(=O)N2CCCCC2)c1 | inconclusive: 39.4%
63 | O=C(C[C@H]1C[C@@H]2c3cc(NC(=O)Cc4ccncc4)ccc3O[C@@H]2[C@H](CO)O1)NCC1CC1 | inconclusive: 27.6%
64 | COc1ccc(S(=O)(=O)N(C)C[C@@H]2OCCCC[C@@H](C)Oc3ccc(NC(=O)NC4CCCCC4)cc3C(=O)N([C@H](C)CO)C[C@H]2C)cc1 | inactive: 1.48%
65 | CN(c1cc2c(c3c1ccn3C)C1CCC2O1)C1CCCCC1 (centres undefined) | inconclusive: 31.1%
66 | O=C(CN1CCN(S(=O)(=O)c2ccc(F)cc2)CC1)Nc1ccc(Cl)cn1 | inconclusive: 27.1%
67 | COC(=O)[C@H]1CN(C(=O)c2ccccc2)C(=O)N1 | active: 25.3%
68 | O=C1ON(Cc2ccccc2)C(c2ccccc2)N1c1ccccc1 (centres undefined) | inconclusive: 21.7%
69 | COc1ccc(CCNC(=O)C(=O)NCC2OCCN2S(=O)(=O)c2ccc3c(c2)OCCO3)cc1OC (centres undefined) | inconclusive: 48%

In the list so far, 19 have a halogen.
Row | SMILES | CPE inhibition
5 | O=c1[nH]c(=S)[nH]c2c1[C@H](CCc1cccc(Cl)c1)O[C@H](C1CCCC1)C2 | inconclusive: 51.6%
16 | Cc1cccc(N(Cc2ccccc2)C(=O)c2ccc(F)c(S(=O)(=O)N3CCOCC3)c2)c1 | inconclusive: 28.7%
18 | Cc1noc(C)c1NC(=O)N(C)C[C@@H]1Oc2ccc(NC(=O)CCC(F)(F)F)cc2C(=O)N([C@H](C)CO)C[C@@H]1C | inconclusive: 26.7%
21 | COC(=O)[C@@]1(Cc2ccc(F)cc2)[C@H]2c3cc(C(=O)N(C)C)n(Cc4ccc(OC(F)(F)F)cc4)c3C[C@H]2CN1C(=O)c1ccccc1 | active: 20.1%
34 | Cc1oc(-c2cccc(Cl)c2)nc1CN(C)C1CCOC1 (centres undefined) | inconclusive: 31%
35 | CN1CCN(C(=O)C2=C[C@H](c3ccc(C(F)(F)F)cc3)C[C@H](OCc3ccc(CO)cc3)O2)CC1 | active: 46.7%
36 | COc1ccc2c3c([nH]c2c1)[C@H](CO)N(C(=O)Nc1ccc(F)cc1)CC31CCN(S(=O)(=O)c2ccc(C)cc2)CC1 | inconclusive: 23.4%
39 | CCNC(=O)C[C@H]1CC[C@H]2[C@H](COc3ccc(NC(=O)c4ccc(C(F)(F)F)cc4)cc3C(=O)N2C)O1 | inactive: -6.52%
43 | O=C(C[C@H]1C=C[C@@H](NS(=O)(=O)c2ccccc2)[C@@H](CO)O1)NCc1ccccc1F | inactive: -7.96%
44 | CC(=O)CC(=O)Nc1ccc(Cl)cn1 | inconclusive: 32.4%
45 | Cc1ccc(S(=O)(=O)N2C[C@@H](O)COC[C@H]3O[C@@H](CC(=O)NCc4ccc(Cl)c(Cl)c4)CC[C@@H]32)cc1 | inconclusive: 20.3%
46 | O=C(CN1CCN(C(=O)C2CCC2)CC1)Nc1ccc(F)cc1 | active: 32.1%
49 | OCCC1CN(Cc2cnc(-c3ccc(Cl)cc3)nc2)CCN1C1CCCC1 (centres undefined) | inconclusive: 43.2%
51 | CC1(C(=O)NS(=O)(=O)c2ccc(Cl)s2)CCN1C(=O)c1ccccc1CCc1ccccc1 (centres undefined) | inconclusive: 20.7%
53 | COc1ccc(CN2C[C@H]3CON(C)[C@H]3C[C@H]2c2ccc(-c3cccc(F)c3)cc2)cc1 | active: 27.4%
59 | CC(C)(C)Nc1nc(SCC(=O)Nc2ccccc2Cl)nc(N2CCOCC2)n1 | inconclusive: 29.2%
60 | O=S(=O)(c1ccc(F)cc1)N1CCCCN2[C@H](CO)[C@@H](c3ccc(C#CC4CC4)cc3)[C@@H]2C1 | inactive: 17.6%
62 | O=C(Nc1ncccc1O)c1ccc(Cl)c(S(=O)(=O)N2CCCCC2)c1 | inconclusive: 39.4%
66 | O=C(CN1CCN(S(=O)(=O)c2ccc(F)cc2)CC1)Nc1ccc(Cl)cn1 | inconclusive: 27.1%

Part of the list above, set out differently:
Row	SMILES	CPE inhibition
37	O=C(Oc1c(-c2ccccc2)c(=O)n2c3c(cccc13)CC2)c1cccc([N+](=O)[O-])c1	inconclusive: 46.6%
38	CCOc1ccc(CCN2C(=S)N([C@@H](CC(C)C)CN3CCCC3CN3C(=S)NC[C@@H]3Cc3ccc(O)cc3)C[C@@H]2Cc2ccc(O)cc2)cc1 (some centres undefined)	active: 31.3%
